Reference: PubChem BioAssay AID1259331 (Drosophila RNAi Screening Center, 2017)

- Purpose: 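Knock-downs that alter ATP level after a high zinc chloride dose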 (primary screen)
- Cell system: Drosophila S2R+ cells
- Reagent: long dsRNA against Drosophila genes
- Time to read-out: 5 days (4 days knock-down, then 1 day zinc)
- Challenge: zinc chloride at 15 mM final level for 1 day
- Detection: 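Luminescent ATP assay standing in for viability; Z score is the mean over three replicate plates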
- Direction: mean Z score: higher = more ATP than other wells, better survival under zinc; ATP luminescence: higher = more ATP, more viable cells
- Active means: 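a reagent is called a hit when its Z score is above 1.5 or below -1.5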
- Calls: active = hit, ATP up or down; inactive = not a hit
Here is one part, drawn at random, of about 3,100 deposited reagents. 126 of them (4.1%) were called active. 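Calls are per reagent; zinc was so toxic that few knock-downs lowered ATP further, so most hits raise ATP.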 Raw values are not corrected between plates. Entries without a mark were called inactive. The numbers tell different reagents against one gene apart. The record does not give: the amount of reagent.

no.	predicted target	reagent	mean Z score	ATP luminescence, replicate 1	ATP luminescence, replicate 2
1	mthl13 (GeneID 246395)	1	0.596	50454	51989
2	Inx3 (GeneID 44266)	1	0.55	41891	49898
3	Inx3 (GeneID 44266)	2	-0.256	52298	51732
4	babo (GeneID 35900)	1	-0.424	88092	57597
5	babo (GeneID 35900)	2	0.224	48200	50532
6	babo (GeneID 35900)	3	-0.232	46023	43657
7	5-HT1B (GeneID 37191)	1	-0.424	59123	63736
8	5-HT1B (GeneID 37191)	2	0.246	60846	58677
9	CG16904 (GeneID 41212)	1	-0.476	39610	42216
10	CG16904 (GeneID 41212)	2	0.104	62467	63547
11	Task6 (GeneID 41671)	1	-0.0596	42765	59380
12	Task6 (GeneID 41671)	2	-0.0263	54562	44548
13	CG12290 (GeneID 43182)	1	-0.554	41685	38359
14	CG12290 (GeneID 43182)	2	-0.323	50481	62450
15	CG3339 (GeneID 43295)	1	-0.158	75021	59175
16	CG3339 (GeneID 43295)	2	0.453	71985	75155
17	Ir8a (GeneID 31867)	1	-0.599	52607	59706
18	Ir8a (GeneID 31867)	2	0.252	40056	48492
19	CG13078 (GeneID 35251)	1	-0.153	48149	36130

4 consecutive entries from above, quoted:
no.	predicted target	reagent	mean Z score	ATP luminescence, replicate 1	ATP luminescence, replicate 2
7	5-HT1B (GeneID 37191)	1	-0.424	59123	63736
8	5-HT1B (GeneID 37191)	2	0.246	60846	58677
9	CG16904 (GeneID 41212)	1	-0.476	39610	42216
10	CG16904 (GeneID 41212)	2	0.104	62467	63547

Further results follow.
no.	predicted target	reagent	mean Z score	ATP luminescence, replicate 1	ATP luminescence, replicate 2
20	CG9903 (GeneID 32621)	1	0.0823	71419	63323
21	CG9903 (GeneID 32621)	2	-0.172	54013	62038
22	rtet (GeneID 42500)	1	0.834	52298	58025
23	rtet (GeneID 42500)	2	0.604	62673	66943
24	Syngr (GeneID 36533)	1	2.19 (active)	1.04e5	1.13e5
25	Syngr (GeneID 36533)	2	-0.411	45611	55522
26	Dolk (GeneID 36856)	1	1.1	82952	95228
27	Dolk (GeneID 36856)	2	-0.173	57785	58386
28	CG32512 (GeneID 33085)	1	-0.0565	67903	62261
29	CG32512 (GeneID 33085)	2	0.0856	47823	51235
30	ppk19 (GeneID 43489)	1	0.0863	76351	58420
31	ppk19 (GeneID 43489)	2	-0.368	50944	51109
32	Tim17b1 (GeneID 40635)	1	0.308	80647	67920
33	Tim17b1 (GeneID 40635)	2	0.191	56019	61987
34	CG7912 (GeneID 43561)	1	0.0123	63999	68555
35	GPHR (GeneID 36682)	1	-0.163	62998	70767
36	GPHR (GeneID 36682)	2	-0.16	55373	57607
37	ppk25 (GeneID 2768722)	1	-0.506	87007	64051
38	ppk25 (GeneID 2768722)	2	0.0532	50515	61181
39	CG31141 (GeneID 318605)	1	-0.152	69361	63237
40	CG31141 (GeneID 318605)	2	0.121	60872	65691
41	CG7333 (GeneID 42334)	1	-0.276	34227	59963
42	Atet (GeneID 33636)	1	0.000899	54819	40056
43	Atet (GeneID 33636)	2	-0.374	46880	51818
44	CG9663 (GeneID 33541)	1	0.198	56705	61455
45	CG17600 (GeneID 33141)	1	0.787	55093	45680
46	CG17600 (GeneID 33141)	2	0.344	46366	54956
47	CG17600 (GeneID 33141)	3	-0.0761	56345	59586
